In US8354395B2, “Method for providing neuroprotection from spinal muscular atrophy” (Trophos, priority 2003, dated 2013):
At least one compound was matched to its structure with a doubt left.

Test system: GABAA receptors
Test: electrophysiology in vitro with rat neurons (slices of hippocampus on MEA, sensitive neurons in patch clamp)
Assay type: cell-based
Protocol: Electrophysiological experiments were carried out in vitro with rat neurons (slices of hippocampus, neurons sensitive in culture), as follows:
The experiments are carried out with hippocampi removed from rats of the Sprague Dawley strain aged from 10 to 21 days. The animals are sacrificed by decapitation, and their brain is rapidly transferred into ACSF (Artificial Cerebro-Spinal Fluid) without sodium (composition: 2 mM KCl, 1.2 mM NaH2PO4, 2 mM MgCl2, 0.5 mM CaCl2, 26 mM NaHCO3, 11 mM glucose, 250 mM saccharose), maintained at a temperature of 4° C. and carbogen (a 95% O2, 5% CO2 mixture) is bubbled through. The hippocampi are extracted from each cerebral hemisphere then cut up into slices of […] thickness using a “tissue chopper”. The slices are left to rest in ACSF medium (composition: 126 mM NaCl, 2 mM KCl, 1.2 mM NaH2PO4, 2 mM MgCl2, 0.5 mM CaCl2, 26 mM NaHCO3, 11 mM glucose) at ambient temperature, at least one hour before recording. […]
The sensitive rat neurons are cultured for 1 to 2 days and then recorded with the patch clamp technique as described in De Roo M. et al. (Dehydroepiandrosterone potentiates native ionotropic ATP receptors containing the P2X2 subunit in rat sensory neurones, J Physiol, 2003, 552:59-71).

CN1CCc2cc3c(cc2[C@H]1[C@@H]1OC(=O)c2c1ccc1c2OCO1)OCO3 [bicuculline]
effect on the stimulating GABAA transmission (postsynaptic field potentials, CA1): blocked
effect on chlorine currents produced by isoguvacine (sensitive neurons, patch-clamp): blocked
